Data as given in patent publication US20200222474A1, “COMPOSITIONS AND METHODS FOR INCREASING PHYTOCHEMICAL BIOAVAILABLITY AND BIOACTIVITY” (North Carolina State University, priority 2017, published 2020).
The source gives many values for each of these; only a part stands here.

Tested on: L. acidophilus NCFM
Experiment: RNA-seq transcriptional analysis of L. acidophilus NCFM growing on plant glycosides
Type: cell-based, Lactobacillus acidophilus
[1] = LBA0160 Anaerobic ribonucleoside triphosphate reductase, COG F
[2] = LBA0197 Oligopeptide binding protein, COG E
[3] = LBA0198 Peptide binding protein, COG E
[4] = LBA0225 6-p-beta-glucosidase, COG G
[5] = LBA0227 Celiohiose-specific PTS IIC, COG G
[6] = LBA0228 Transcriptional regulator, COG G
[7] = LBA0455 Mannose-specific PTS system component IIC, COG G
[8] = LBA0456 Mannose-specific PTS system component IID, COG G
[9] = LBA0491 Cellobiose-specific PTS IIC, COG G
[10] = LBA0503 ABC transporter permease, COG G
[11] = LBA0606 PTS system arbutin-like IIBC component, COG G
[12] = LBA0609 PTS enzyme II ABC component, COG G
[13] = LBA0680 Glycogen branching enzyme, COG G
[14] = LBA0681 Glucose-1-phosphate adenylyltransferase, COG G
[15] = LBA0682 Glucose-1-phosphate adenylyltransferase, COG G
[16] = LBA0683 Glycogen synthase, COG G
[17] = LBA0685 Glycogen phosphorylase, COG G
[18] = LBA0686 Amylopullulanase, COG G
[19] = LBA0687 Phosphoglucomutase, COG G
[20] = LBA0724 Transcription antiterminator, COG G
[21] = LBA0726 Phospho-beta-galactosidase II, COG G
[22] = LBA0874 Phospho-beta-galactosidase I, COG G
[23] = LBA0875 Transcriptional regulator, COG G
[24] = LBA0876 Cellobiose-specific PTS IIC, COG G
[25] = LBA0877 Cellobiose-specific PTS IIA, COG G
[26] = LBA0986 Galactose mutarotase related ensyme, COG G
[27] = LBA1102 Transmembrane protein, COG G
[28] = LBA1400 Oligopeptide ABC transporter substrate binding protein, COG E
[29] = LBA1433 Dihydroxyacetone kinase, COG G
[30] = LBA1434 Dihydroxyacetone kinase, COG G

For `OCc1ccccc1O[C@@H]1O[C@H](CO)[C@@H](O)[C@H](O)[C@H]1O` [Salicin], the “Log2 differential normalized TPM ratio compared to glucose” value (LBA0146 PTS system HA, COG G) was 1.6, the “Log2 differential normalized TPM ratio compared to lactose” value (LBA0146 PTS system HA, COG G) was 0.1 and the “Transcripts per million (rpm)” value (LBA0146 PTS system HA, COG G) was 25.6 rpm. For the same molecule, the “Log2 differential normalized TPM ratio compared to glucose” value [1] was 1.7, the “Log2 differential normalized TPM ratio compared to lactose” value [1] was 0.7 and the “Transcripts per million (rpm)” value [1] was 560.3 rpm. For the same molecule, the “Log2 differential normalized TPM ratio compared to glucose” value [2] was 1, the “Log2 differential normalized TPM ratio compared to lactose” value [2] was 3.2 and the “Transcripts per million (rpm)” value [2] was 134.5 rpm. The “Log2 differential normalized TPM ratio compared to glucose” value [3] was 0, the “Log2 differential normalized TPM ratio compared to lactose” value [3] was 3 and the “Transcripts per million (rpm)” value [3] was 43.2 rpm. For the same molecule, the “Log2 differential normalized TPM ratio compared to glucose” value [4] was −0.1, the “Log2 differential normalized TPM ratio compared to lactose” value [4] was 0.2 and the “Transcripts per million (rpm)” value [4] was 25.6 rpm. For the same molecule, the “Log2 differential normalized TPM ratio compared to glucose” value [5] was 0.9, the “Log2 differential normalized TPM ratio compared to lactose” value [5] was 0.6 and the “Transcripts per million (rpm)” value [5] was 6.9 rpm. For the same molecule, the “Log2 differential normalized TPM ratio compared to glucose” value [6] was 0.1, the “Log2 differential normalized TPM ratio compared to lactose” value [6] was 0 and the “Transcripts per million (rpm)” value [6] was 15.6 rpm. For the same molecule, the “Log2 differential normalized TPM ratio compared to glucose” value [7] was 1.8, the “Log2 differential normalized TPM ratio compared to lactose” value [7] was 0.7 and the “Transcripts per million (rpm)” value [7] was 1007.8 rpm. The “Log2 differential normalized TPM ratio compared to glucose” value [8] was 1.8, the “Log2 differential normalized TPM ratio compared to lactose” value [8] was 0.7 and the “Transcripts per million (rpm)” value [8] was 1723.5 rpm. For the same molecule, the “Log2 differential normalized TPM ratio compared to glucose” value [9] was 1.5, the “Log2 differential normalized TPM ratio compared to lactose” value [9] was −0.6 and the “Transcripts per million (rpm)” value [9] was 20.9 rpm. For the same molecule, the “Log2 differential normalized TPM ratio compared to glucose” value [10] was 2.1, the “Log2 differential normalized TPM ratio compared to lactose” value [10] was 0.9 and the “Transcripts per million (rpm)” value [10] was 13.7 rpm. The “Log2 differential normalized TPM ratio compared to glucose” value (LBA0505 Fructosidase, COG G) was 1.9, the “Log2 differential normalized TPM ratio compared to lactose” value (LBA0505 Fructosidase, COG G) was 1 and the “Transcripts per million (rpm)” value (LBA0505 Fructosidase, COG G) was 13.7 rpm. For the same molecule, the “Log2 differential normalized TPM ratio compared to glucose” value [11] was 2.5, the “Log2 differential normalized TPM ratio compared to lactose” value [11] was 0.3 and the “Transcripts per million (rpm)” value [11] was 25.6 rpm. For the same molecule, the “Log2 differential normalized TPM ratio compared to glucose” value [12] was 2, the “Log2 differential normalized TPM ratio compared to lactose” value [12] was 0.3 and the “Transcripts per million (rpm)” value [12] was 199.6 rpm. The “Log2 differential normalized TPM ratio compared to glucose” value [13] was 0.7, the “Log2 differential normalized TPM ratio compared to lactose” value [13] was −0.3 and the “Transcripts per million (rpm)” value [13] was 108.3 rpm. The “Log2 differential normalized TPM ratio compared to glucose” value [14] was 1.8, the “Log2 differential normalized TPM ratio compared to lactose” value [14] was −0.1 and the “Transcripts per million (rpm)” value [14] was 144.1 rpm. For the same molecule, the “Log2 differential normalized TPM ratio compared to glucose” value [15] was 2, the “Log2 differential normalized TPM ratio compared to lactose” value [15] was 0.2 and the “Transcripts per million (rpm)” value [15] was 201.1 rpm. For the same molecule, the “Log2 differential normalized TPM ratio compared to glucose” value [16] was 2.2, the “Log2 differential normalized TPM ratio compared to lactose” value [16] was 0.3 and the “Transcripts per million (rpm)” value [16] was 283.5 rpm. For the same molecule, the “Log2 differential normalized TPM ratio compared to glucose” value [17] was 2.4, the “Log2 differential normalized TPM ratio compared to lactose” value [17] was 0.5 and the “Transcripts per million (rpm)” value [17] was 330.5 rpm. For the same molecule, the “Log2 differential normalized TPM ratio compared to glucose” value [18] was 2.4, the “Log2 differential normalized TPM ratio compared to lactose” value [18] was 0.6 and the “Transcripts per million (rpm)” value [18] was 357.5 rpm. The “Log2 differential normalized TPM ratio compared to glucose” value [19] was 1.7, the “Log2 differential normalized TPM ratio compared to lactose” value [19] was 0 and the “Transcripts per million (rpm)” value [19] was 410.2 rpm. For the same molecule, the “Log2 differential normalized TPM ratio compared to glucose” value [20] was 5.3, the “Log2 differential normalized TPM ratio compared to lactose” value [20] was 3.5 and the “Transcripts per million (rpm)” value [20] was 1214.5 rpm. For the same molecule, the “Log2 differential normalized TPM ratio compared to glucose” value (LBA0725 PTS EII system, COG G) was 8.9, the “Log2 differential normalized TPM ratio compared to lactose” value (LBA0725 PTS EII system, COG G) was 6.2 and the “Transcripts per million (rpm)” value (LBA0725 PTS EII system, COG G) was 902.9 rpm. The “Log2 differential normalized TPM ratio compared to glucose” value [21] was 6.2, the “Log2 differential normalized TPM ratio compared to lactose” value [21] was 3.5 and the “Transcripts per million (rpm)” value [21] was 1529.5 rpm. For the same molecule, the “Log2 differential normalized TPM ratio compared to glucose” value [22] was 0.9, the “Log2 differential normalized TPM ratio compared to lactose” value [22] was −0.2 and the “Transcripts per million (rpm)” value [22] was 28.6 rpm. The “Log2 differential normalized TPM ratio compared to glucose” value [23] was 1, the “Log2 differential normalized TPM ratio compared to lactose” value [23] was 0.6 and the “Transcripts per million (rpm)” value [23] was 25 rpm. For the same molecule, the “Log2 differential normalized TPM ratio compared to glucose” value [24] was 2.4, the “Log2 differential normalized TPM ratio compared to lactose” value [24] was −0.5 and the “Transcripts per million (rpm)” value [24] was 551. 7 rpm. The “Log2 differential normalized TPM ratio compared to glucose” value [25] was 2.6, the “Log2 differential normalized TPM ratio compared to lactose” value [25] was −0.5 and the “Transcripts per million (rpm)” value [25] was 369.8 rpm. For the same molecule, the “Log2 differential normalized TPM ratio compared to glucose” value (LBA0911 Aminopeptidase, COG E) was 1.2, the “Log2 differential normalized TPM ratio compared to lactose” value (LBA0911 Aminopeptidase, COG E) was 0 and the “Transcripts per million (rpm)” value (LBA0911 Aminopeptidase, COG E) was 3872 rpm. For the same molecule, the “Log2 differential normalized TPM ratio compared to glucose” value [26] was 1.3, the “Log2 differential normalized TPM ratio compared to lactose” value [26] was 0.7 and the “Transcripts per million (rpm)” value [26] was 240.8 rpm. The “Log2 differential normalized TPM ratio compared to glucose” value (LBA1022 Arginase, COG E) was −0.6, the “Log2 differential normalized TPM ratio compared to lactose” value (LBA1022 Arginase, COG E) was −0.8 and the “Transcripts per million (rpm)” value (LBA1022 Arginase, COG E) was 175.5 rpm. For the same molecule, the “Log2 differential normalized TPM ratio compared to glucose” value (LBA1055 Mutator protein, COG F) was −0.1, the “Log2 differential normalized TPM ratio compared to lactose” value (LBA1055 Mutator protein, COG F) was 0.3 and the “Log2 differential normalized TPM ratio compared to glucose” value [27] was 2.2. For the same molecule, the “Log2 differential normalized TPM ratio compared to lactose” value [27] was 0.9, the “Transcripts per million (rpm)” value [27] was 167.6 rpm and the “Log2 differential normalized TPM ratio compared to glucose” value [28] was 3.1. The “Log2 differential normalized TPM ratio compared to lactose” value [28] was 2, the “Transcripts per million (rpm)” value [28] was 94 rpm and the “Log2 differential normalized TPM ratio compared to glucose” value [29] was 2.7. For the same molecule, the “Log2 differential normalized TPM ratio compared to lactose” value [29] was 0.1, the “Transcripts per million (rpm)” value [29] was 39 rpm and the “Log2 differential normalized TPM ratio compared to glucose” value [30] was 3.3. For the same molecule, the “Log2 differential normalized TPM ratio compared to lactose” value [30] was −0.1 and the “Transcripts per million (rpm)” value [30] was 36 rpm.
